Experimental data: patent US9670221B2, “Furopyridines as bromodomain inhibitors” (GlaxoSmithKline Intellectual Property (No.2) Limited, priority 2013, dated 2017)
Counter-ions that a name gives are not always drawn. Some entries share one result that the patent states for a list of compounds.

What was measured:
BRD4 BD1 = target: T1, BRD4 BD1 (Homo sapiens, UniProt O60885, Y390A); experiment: TR-FRET binding assay, BRD4 BD1 (mutant protein); settings: BRD4 (1-477) mutant, 10 nM protein
T1 construct: BRD4 (1-477) (Y97A) and (Y390A); made in house; host or cells: E. coli (pET15b vector)
Procedure: Time Resolved Fluorescence Resonance Energy Transfer (TR-FRET) Assay
Binding was assessed using a time resolved fluorescent resonance energy transfer binding assay. This utilises a 6 His purification tag at the N-terminal of the proteins as an epitope for an anti-6 His antibody labeled with Europium chelate (PerkinElmer AD0111) allowing binding of the Europium to the proteins which acts as the donor fluorophore. A small molecule, high affinity binder of the bromodomains BRD2, BRD3, BRD4 and BRDT has been labeled with Alexa Fluor647 (Reference Compound X) and this acts as the acceptor in the FRET pair.
Assay Principle: In the absence of a competing compound, excitation of the Europium causes the donor to emit at λ618 nm which excites the Alexa labelled bromodomain binding compound leading to an increased energy transfer that is measurable at λ647 […]. In the presence of a sufficient concentration of a compound that can bind these proteins, the interaction is disrupted leading to a quantifiable drop in fluorescent resonance energy transfer.
The binding of the compounds of formula (I) to Bromodomains BRD2, BRD3, BRD4 and BRDT was assessed using mutated proteins to detect differential binding to either Binding Domain 1 (BD1) or Binding Domain 2 (BD2) on the bromodomain. These single residue mutations in the acetyl lysine binding pocket greatly lower the affinity of the fluoroligand (Reference Compound X) for the mutated domain (>1000 fold selective for the non-mutated domain). Therefore in the final assay conditions, binding of the fluoroligand to the mutated domain cannot be detected and subsequently the assay is suitable to determine the binding of compounds to the single non-mutated bromodomain.
Protein production: Recombinant Human Bromodomains [(BRD2 (1-473) (Y113A) and (Y386A), BRD3 (1-435) (Y73A) and (Y348A) BRD4 (1-477) (Y97A) and (Y390A) and BRDT (1-397) (Y66A) and (Y309A)] were expressed in E. coli cells (in pET15b vector for BRD2/3/4 and in pET28a vector for BRDT) with a 6-His tag at the N-terminal. The His-tagged Bromodomain pellet was resuspended in 50 mM HEPES (pH7.5), 300 mM NaCl, 10 mM imidazole & 1 μl/mL protease inhibitor cocktail and extracted from the E. coli cells using sonication and purified using a nickel sepharose high performance column, the proteins were washed and then eluted with a linear gradient of 0-500 mM imidazole with buffer 50 mM HEPES (pH7.5), 150 mM NaCl, 500 mM imidazole, over 20 column volumes. Final purification was completed by Superdex 200 prep grade size exclusion column. Purified protein was stored at −80° C. in 20 mM HEPES pH 7.5 and 100 mM NaCl. Protein identity was confirmed by peptide mass fingerprinting and predicted molecular weight confirmed by mass spectrometry.
Protocol for Bromodomain BRD2, 3, 4 and T, BD1^+BD2 mutant assays: All assay components were dissolved in buffer composition of 50 mM HEPES pH7.4, 50 mM NaCl, 5% Glycerol, 1 mM DTT and 1 mM CHAPS. The final concentration of bromodomain proteins were 10 nM and the Alexa Fluor647 ligand was at Kd. These components were premixed and 5 μl of this reaction mixture was added to all wells containing 50 nl of various concentrations of test compound or DMSO vehicle (0.5% DMSO final) in Greiner 384 well black low volume microtitre plates and incubated in dark for 30 minutes at room temperature. 5 μl of detection mixture containing 1.5 nM final concentration anti-6His Europium chelate was added to all wells and a further dark incubation of at least 30 minutes was performed. Plates were then read on the Envision platereader, (λex=317 nm, donor λem=615 nm; acceptor λem=665 nm; Dichroic LANCE dual). Time resolved fluorescent intensity measurements were made at both emission wavelengths and the ratio of acceptor/donor was calculated and used for data analysis. All data was normalized to the mean of 16 high (inhibitor control—Example 11 of WO 2011/054846A1) and 16 low (DMSO) control wells on each plate. […]

BRD4 BD1 over BRD4 BD2 = experiment: Selectivity for BRD4 BD1 over BRD4 BD2 from the TR-FRET assays; assay type: binding, Human

| SMILES | pIC50 in the BRD4 BD1 assay (BRD4 BD1) | selectivity for BRD4 BD1 over BRD4 BD2 (BRD4 BD1 pIC50 - BRD4 BD2 pIC50) (BRD4 BD1 over BRD4 BD2) |
| --- | --- | --- |
| COc1ccc(-c2cn(C)c(=O)c3cc(CNCCN)oc23)cc1OC [Example 5, 2-(((2-aminoethyl)amino)methyl)-7-(3,4-dimethoxyphenyl)-5-methylfuro[3,2-c]pyridin-4(5H)-one dihydrochloride] | ≥ 6.0 | ≥ 1 log unit |
| Cl.Cn1cc(-c2ccc(CN)cc2)c2oc(CN3CCN(S(C)(=O)=O)CC3)cc2c1=O [Example 6, 7-(4-(aminomethyl)phenyl)-5-methyl-2-((4-(methylsulfonyl)piperazin-1-yl)methyl)furo[3,2-c]pyridin-4(5H)-one hydrochloride] | ≥ 6.0 | ≥ 1 log unit |
| COc1ccc(-c2cn(C)c(=O)c3cc(CN4CCOCC4)oc23)cc1OC [Example 9, 7-(3,4-dimethoxyphenyl)-5-methyl-2-(morpholinomethyl)furo[3,2-c]pyridin-4(5H)-one] | ≥ 6.0 | ≥ 1 log unit |
| COc1ccc(-c2cn(C)c(=O)c3cc(CN4CCCNCC4)oc23)cc1OC [Example 11, 2-((1,4-diazepan-1-yl)methyl)-7-(3,4-dimethoxyphenyl)-5-methylfuro[3,2-c]pyridin-4(5H)-one] | ≥ 6.0 | ≥ 1 log unit |
| Cn1cc(-c2ccnc(OCC3CCOCC3)c2)c2oc(CN3CCCC(F)(F)C3)cc2c1=O [Example 13, 2-((3,3-difluoropiperidin-1-yl)methyl)-5-methyl-7-(2-((tetrahydro-2H-pyran-4-yl)methoxy)pyridin-4-yl)furo[3,2-c]pyridin-4(5H)-one] | ≥ 6.0 | ≥ 1 log unit |
| C[C@@H]1CN(S(C)(=O)=O)CCN1Cc1cc2c(=O)n(C)cc(-c3ccncc3OCC(F)F)c2o1 [Example 74, (R)-7-(3-(2,2-difluoroethoxy)pyridin-4-yl)-5-methyl-2-((2-methyl-4-(methylsulfonyl)piperazin-1-yl)methyl)furo[3,2-c]pyridin-4(5H)-one] | – | > 2 log unit |
| C[C@@H]1CN(S(C)(=O)=O)CCN1Cc1cc2c(=O)n(C)cc(-c3ccncc3OCCO)c2o1 [Example 75, (R)-7-(3-(2-hydroxyethoxy)pyridin-4-yl)-5-methyl-2-((2-methyl-4-(methylsulfonyl)piperazin-1-yl)methyl)furo[3,2-c]pyridin-4(5H)-one] | – | > 2 log unit |
| C[C@@H]1CN(S(C)(=O)=O)CCN1Cc1cc2c(=O)n(C)cc(-c3ccnc4c3CC(=O)N4)c2o1 [Example 77, (R)-5-methyl-2-((2-methyl-4-(methylsulfonyl)piperazin-1-yl)methyl)-7-(2-oxo-2,3-dihydro-1H-pyrrolo[2,3-b]pyridin-4-yl)furo[3,2-c]pyridin-4(5H)-one] | – | > 2 log unit |
| COC(C)COc1cnccc1-c1cn(C)c(=O)c2cc(CN3CCN(S(C)(=O)=O)C[C@H]3C)oc12 (stereo partly drawn) [Example 78, 7-(3-(2-methoxypropoxy)pyridin-4-yl)-5-methyl-2-(((R)-2-methyl-4-(methylsulfonyl)piperazin-1-yl)methyl)furo[3,2-c]pyridin-4(5H)-one] | – | > 2 log unit |
| CC(=O)Nc1cc(-c2cn(C)c(=O)c3cc(CN4CCN(C)CC4)oc23)ccn1 [Example 84, N-(4-(5-methyl-2-((4-methylpiperazin-1-yl)methyl)-4-oxo-4,5-dihydrofuro[3,2-c]pyridin-7-yl)pyridin-2-yl)acetamide] | – | ≥ 1 log unit |
| CC(=O)Nc1cc(-c2cn(C)c(=O)c3cc(CN4CCC[C@H](O)C4)oc23)ccn1 [Example 90, (S)-N-(4-(2-((3-hydroxypiperidin-1-yl)methyl)-5-methyl-4-oxo-4,5-dihydrofuro[3,2-c]pyridin-7-yl)pyridin-2-yl)acetamide] | – | ≥ 1 log unit |
| CC(=O)Nc1cc(-c2cn(C)c(=O)c3cc(CN4CCNCC4)oc23)ccn1 [Example 91, N-(4-(5-methyl-4-oxo-2-(piperazin-1-ylmethyl)-4,5-dihydrofuro[3,2-c]pyridin-7-yl)pyridin-2-yl)acetamide dihydrochloride] | – | ≥ 1 log unit |
| CCN1CCN(Cc2cc3c(=O)n(C)cc(-c4ccnc(NC(C)=O)c4)c3o2)CC1=O [Example 92, N-(4-(2-((4-ethyl-3-oxopiperazin-1-yl)methyl)-5-methyl-4-oxo-4,5-dihydrofuro[3,2-c]pyridin-7-yl)pyridin-2-yl)acetamide] | – | ≥ 1 log unit |
| CC(=O)Nc1cc(-c2cn(C)c(=O)c3cc(CN4CCC(S(C)(=O)=O)CC4)oc23)ccn1 [Example 93, N-(4-(5-methyl-2-((4-(methylsulfonyl)piperidin-1-yl)methyl)-4-oxo-4,5-dihydrofuro[3,2-c]pyridin-7-yl)pyridin-2-yl)acetamide] | – | ≥ 1 log unit |
| CCN1CCN(Cc2cc3c(=O)n(C)cc(-c4ccnc(NC(C)=O)c4)c3o2)C(C)C1 (centres unmarked) [Example 97, N-(4-(2-((4-ethyl-2-methylpiperazin-1-yl)methyl)-5-methyl-4-oxo-4,5-dihydrofuro[3,2-c]pyridin-7-yl)pyridin-2-yl)acetamide] | – | ≥ 1 log unit |
| CC(=O)Nc1cc(-c2cn(C)c(=O)c3cc(CN4CCC(=O)N(C)CC4)oc23)ccn1 [Example 98, N-(4-(5-methyl-2-((4-methyl-5-oxo-1,4-diazepan-1-yl)methyl)-4-oxo-4,5-dihydrofuro[3,2-c]pyridin-7-yl)pyridin-2-yl)acetamide] | ≥ 6.0 | – |
| CC(=O)Nc1cc(-c2cn(C)c(=O)c3cc(CN4CCNC(=O)CC4C)oc23)ccn1 (centres unmarked) [Example 99, N-(4-(5-methyl-2-((7-methyl-5-oxo-1,4-diazepan-1-yl)methyl)-4-oxo-4,5-dihydrofuro[3,2-c]pyridin-7-yl)pyridin-2-yl)acetamide] | – | ≥ 1 log unit |
| CC(=O)Nc1cc(-c2cn(C)c(=O)c3cc(CN4CCCS(=O)(=O)CC4)oc23)ccn1 [Example 101, N-(4-(2-((1,1-dioxido-1,4-thiazepan-4-yl)methyl)-5-methyl-4-oxo-4,5-dihydrofuro[3,2-c]pyridin-7-yl)pyridin-2-yl)acetamide] | ≥ 6.0 | – |
| CC(=O)Nc1cc(-c2cn(C)c(=O)c3cc(CN4CCS(=O)(=O)C(C)C4)oc23)ccn1 (centres unmarked) [Example 103, N-(4-(5-methyl-2-((2-methyl-1,1-dioxidothiomorpholino)methyl)-4-oxo-4,5-dihydrofuro[3,2-c]pyridin-7-yl)pyridin-2-yl)acetamide] | ≥ 6.0 | – |
| CC(=O)Nc1cc(-c2cn(C)c(=O)c3cc(CN4CCOCC4)oc23)ccn1 [Example 105, N-(4-(5-methyl-2-(morpholinomethyl)-4-oxo-4,5-dihydrofuro[3,2-c]pyridin-7-yl)pyridin-2-yl)acetamide] | – | ≥ 1 log unit |
| CC(=O)Nc1cc(-c2cn(C)c(=O)c3cc(CN4CCN(C)C(=O)C4)oc23)ccn1 [Example 107, N-(4-(5-methyl-2-((4-methyl-3-oxopiperazin-1-yl)methyl)-4-oxo-4,5-dihydrofuro[3,2-c]pyridin-7-yl)pyridin-2-yl)acetamide] | – | ≥ 1 log unit |
